In the test the target is WT SLC30A1 expressed in cells (lysate for non-reducing SDS-PAGE) (human) (UniProt Q9Y6M5). Put plainly: non-reducing SDS-PAGE with Western blot; lysates of cells expressing EV, WT SLC30A1 or mutants, separated by non-reducing SDS-PAGE.

This is an account of results in PMC11633486, “The Intestinal Transporter SLC30A1 Plays a Critical Role in Regulating Systemic Zinc Homeostasis” (Advanced Science, 2024).

No constants are given. Whether binding was seen depends on the method and setting. Some entries that bind do so weakly or less than the wild type.

B1: full-length human SLC30A1 protein (natural protein, UniProt Q9Y6M5 1-507, looked up)
chain: MGCWGRNRGRLLCMLALTFMFMVLEVVVSRVTSSLAMLSDSFHMLSDVLALVVALVAERFARRTHATQKNTFGWIRAEVMGALVNAIFLTGLCFAILLEAIERFIEPHEMQQPLVVLGVGVAGLLVNVLGLCLFHHHSGFSQDSGHGHSHGGHGHGHGLPKGPRVKSTRPGSSDINVAPGEQGPDQEETNTLVANTSNSNGLKLDPADPENPRSGDTVEVQVNGNLVREPDHMELEEDRAGQLNMRGVFLHVLGDALGSVIVVVNALVFYFSWKGCSEGDFCVNPCFPDPCKAFVEIINSTHASVYEAGPCWVLYLDPTLCVVMVCILLYTTYPLLKESALILLQTVPKQIDIRNLIKELRNVEGVEEVHELHVWQLAGSRIIATAHIKCEDPTSYMEVAKTIKDVFHNHGIHATTIQPEFASVGSKSSVVPCELACRTQCALKQCCGTLPQAPSGKDAEKTPAVSISCLELSNNLEKKPRRTKAENIPAVVIEIKNMPNKQPESSL
notes: SLC30A1 (zinc transporter 1), human, full-length cDNA with codon optimization; Homodimer in the cryo-EM structure; the C291 residues of the two protomers form a disulfide bond; also called WT SLC30A1; wild-type SLC30A1; source: HEK293F, transfected (pEZT vector), purified (Strep-Tactin beads, Superose 6 gel filtration) in LMNG/CHS
Take B1: the binding entry is on record as “binds”.
